PubChem BioAssay AID1224828 | NIAID | 2016
Purpose: 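Knock-downs that increase or decrease LPS-induced p65 nuclear translocation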 (primary screen). Cell system: mouse RAW264.7 G9 macrophage reporter cells (GFP-p65, Tnf promoter-mCherry). Knock-down reagent: siRNA pool against mouse genes, 100 nM. Timing: 2 days siRNA transfection, then 40 min LPS before fixation. Challenge: LPS (Salmonella minnesota R595) at 10 ng/ml. Measured: 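Microscopy ratio of nuclear to perinuclear-ring GFP-p65 signal, scaled to the plate median; gene score is the average of two replicate robust z-scores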. Reading the numbers: p65 translocation robust z-score: higher = more nuclear NF-kappaB p65 after LPS than the plate median; nuclear/cytoplasmic p65 ratio: higher = more nuclear NF-kappaB p65. Rule for the call: 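Called active when z exceeds 3.3 or falls under -1.56 (median of Tlr4 controls), giving activity score of at least 50; no calls for control wells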. Meaning of the calls: active = hit (p65 shift raised or lowered); inactive = no clear change.
Here is one part, drawn at random, of about 17,000 reagents tested. In the full data, 762 (4.5%) got an active call. 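Active calls include both raised and lowered p65 entry, mostly lowered; wells with fewer than 50 cells lack a z-score.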 Raw values are not corrected between plates. Entries without a mark were called inactive.

gene	p65 translocation robust z-score	nuclear/cytoplasmic p65 ratio, rep 1	nuclear/cytoplasmic p65 ratio, rep 2	low cell count flag
Bcl2l13	-0.67	1.45	1.58	enough cells to score
Bmi1	0.72	1.75	1.7	enough cells to score
Akap8	1.16	1.79	1.6	enough cells to score
Vmn1r206	-0.16	1.4	1.21	enough cells to score
Myrip	0.74	1.53	1.45	enough cells to score
Lalba		1.52	1.42	fewer than 50 cells per well; well left out of scoring
Nelfe	-0.59	1.34	1.16	enough cells to score
Psap	1.15	1.61	1.6	enough cells to score
Nin	0.61	1.92	1.53	enough cells to score
D930030D11Rik	-0.64	1.41	1.52	enough cells to score
Etnk1	1.53	1.84	1.65	enough cells to score
Clca3b	0.37	1.77	1.72	enough cells to score
Stn1	0.81	1.76	1.46	enough cells to score

Targets above whose target name begins with B or b (2):
gene	p65 translocation robust z-score	nuclear/cytoplasmic p65 ratio, rep 1	nuclear/cytoplasmic p65 ratio, rep 2	low cell count flag
Bcl2l13	-0.67	1.45	1.58	enough cells to score
Bmi1	0.72	1.75	1.7	enough cells to score

Continued:
gene	p65 translocation robust z-score	nuclear/cytoplasmic p65 ratio, rep 1	nuclear/cytoplasmic p65 ratio, rep 2	low cell count flag
Aamdc	2.3	1.82	1.6	enough cells to score
Vmn1r230	0.98	1.58	1.8	enough cells to score
Srebf2	-0.29	1.41	1.61	enough cells to score
Mtfp1	0.83	1.45	1.58	enough cells to score
Ano9	-1.72 (active)	1.19	1.18	enough cells to score
Trav13-5	-1.68 (active)	1.32	1.31	enough cells to score
Ppfibp2	-0.5	1.27	1.2	enough cells to score
Tcl1	0.54	1.69	1.51	enough cells to score
4931432E15Rik		1.28	1.11	fewer than 50 cells per well; well left out of scoring
Kdm3b	-0.96	1.41	1.3	enough cells to score
Coil	-0.09	1.53	1.8	enough cells to score
Prorsd1		1.11	1.1	fewer than 50 cells per well; well left out of scoring
Guca2a	-1.11	1.56	1.4	enough cells to score
Hgfac	-0.52	1.39	1.29	enough cells to score
Aph1a	1.96	1.7	1.81	enough cells to score
D930046H04Rik	-2.23 (active)	1.17	1.3	enough cells to score
Exosc1	-1.86 (active)	1.26	1.27	enough cells to score
Bcat2	-0.38	1.55	1.56	enough cells to score
Nrm	0.17	1.83	1.48	enough cells to score
Ccdc9	0.15	1.66	1.76	enough cells to score
Pdik1l		1.63	1.21	fewer than 50 cells per well; well left out of scoring
Asic4	-0.11	1.57	1.68	enough cells to score
Tfeb	-0.3	1.46	1.49	enough cells to score
Chd1l	-0.97	1.36	1.71	enough cells to score
Gpr21	1.56	1.63	1.59	enough cells to score
Tepsin		1.29	1.15	fewer than 50 cells per well; well left out of scoring
Lctl	0.25	1.7	1.36	enough cells to score
